The record followed here is patent US9763884B2, “Drug delivery system” (EB IP HYBRITABS B.V., priority 2011, dated 2017).

A short description of the data set: Pharmacokinetics of three single doses of sublingual testosterone solution in healthy premenopausal women. As for the experimental part: All 16 subjects received each investigational drug dose once in random order. Wash-out between treatments was at least 48 h. Subjects had serial blood samples drawn via an intravenous catheter. Pharmacokinetic parameters were monitored at baseline and (at 2, 4, 6, 8, 10, 20, 30, 60, 90, 120, 180, 230 min) after dosing.
Blood samples in the placebo condition were only measured at −5, 10, 60 and 230 min.
For the placebo solution 0.50 ml was administered.
The different doses were prepared by an unblinded research associate and administered by blinded research associates. […]
E2 was analysed by a chemiluminescence immunoassay (Siemens), the LLOQ was […]. 3α-diol-G was measured by ELISA (BioVendor), the LLOQ was 0.25 ng/mL. SHBG was measured by an electrochemiluminescent assay (ECLIA, Roche). Albumin was measured by Roche Bromocresol Green (BCG) analysis (Roche).
The pharmacokinetic parameters were analyzed using the WinNonlin software (version 5.1). Pharmacokinetic parameters including area under the curve, t=0 till t=230 min (AUC0-230), maximum concentration (Cmax) and time to maximum concentration (tmax) were calculated based on actual and baseline corrected individual concentration time curves. […] Tmax was analyzed using a Wilcoxon rank sum test. […]

For the compound `C[C@]12CC[C@H]3[C@@H](CCC4=CC(=O)CC[C@@]43C)[C@@H]1CC[C@@H]2O` [Testosterone, testosterone], the “changes in SHBG and albumin levels” value (between and on test days) was “no statistically significant changes”. The E2 levels entry (between the three doses, t=60 and t=230 min) is on record as “did not change”.
